These are yes or no findings as the source states them, for the method shown. Some binding calls cover weakened binding; strength is not graded here.
What was measured:
[1] = biological target: T1, p32/gC1q-R, cell surface p32 on mouse plaque cells and 4T1 tumor macrophages (mouse) (UniProt O35658); experiment: flow cytometry; 1 nmol FAM-peptide incubated 10 min on ice with live primary mouse cells
T1 sequence (looked up): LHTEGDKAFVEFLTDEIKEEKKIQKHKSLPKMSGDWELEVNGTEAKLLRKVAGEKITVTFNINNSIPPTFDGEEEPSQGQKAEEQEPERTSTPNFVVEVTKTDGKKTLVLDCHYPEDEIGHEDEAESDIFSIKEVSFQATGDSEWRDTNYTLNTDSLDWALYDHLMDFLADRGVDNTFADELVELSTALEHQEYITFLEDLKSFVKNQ

[2] = biological target: T1, p32/gC1q-R, cell surface p32 on mouse plaque cells and 4T1 tumor macrophages (mouse); experiment: flow cytometry of FAM-LyP-1 against FAM-ARAL on primary mouse cells (FIG. 11B)

CGNKRTRGC (labeled with fluorescein (FAM); cyclic 9-amino acid peptide) [FAM-LyP-1 (fluorescein-labeled LyP-1 peptide, …)]
binding [1]: binds | binding [2]: binds

Source: patent US20130115167A1
